Some of the results follow. The main result of the screen is listed elsewhere. These columns were measured beside it and carry no call.
Test: modulators of CD8 T cell-vesicle binding, confirmation, cherry-picked primary hits, two concentrations (AID 2810);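 further: lower values mean blocking of vesicle binding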;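 on percent response (vesicle binding): ratio of mean FL2 vesicle stain of CD8+ cells to that row's control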
Conditions: 2C CD8+ T cell-vesicle binding, flow cytometry; for double positive events: CD8+/vesicle+ events
[1] = at 15.4 µM, stronger effect = lower value

SMILES	double positive events (at 7.7 µM)	double positive events [1]	percent response (vesicle binding) (at 7.7 µM)
O=C(NC1CCCCCC1)C1CCN(S(=O)(=O)c2ccccc2)CC1	19%	23.9%	151%
Cc1c(C)c2ccc(OCC(=O)N3CCC(C(=O)O)CC3)c(C)c2oc1=O	23.6%	18.4%	236%
O=C(COc1ccc(Br)cc1)N1CCN(c2ccc([N+](=O)[O-])c(N3CCCCC3)c2)CC1	7.4%	12.6%	93.1%
CN(c1ccccc1)S(=O)(=O)c1cccc(NC(=O)C2CCCO2)c1 (stereo not given)	8.5%	12.6%	343%
C/C(=N\NC(=O)CNC(=O)C(c1ccccc1)c1ccccc1)c1ccc(C)cc1	11.3%	18.9%	408%
CCCC(=O)Nc1ccc(Cl)c(NC(=O)c2cccnc2)c1	38.7%	30.5%	286%
CCOC(=O)c1c(NC(=O)CCl)sc(CN(C)C)c1-c1ccccc1	20.1%	11.1%	211%
O=C(NNC(=S)Nc1ccc(Br)cc1Cl)c1ccco1	15%	40.7%	253%
COc1ccc(OCCCC(=O)OCC(=O)Nc2sccc2C(N)=O)cc1	16.9%	36.8%	145%
O=C(c1ccco1)N1CCN(C(=O)C2c3ccccc3Oc3ccccc32)CC1	26.2%	26.8%	415%
COCCn1c(SCC(=O)Nc2ccc(C(C)=O)cc2)nc2c([nH]c3ccccc32)c1=O	16.1%	34.4%	394%
CCOc1ccc(CNC(c2ccccc2)c2ccccc2)cc1	11.3%	14.3%	216%
CC(Sc1nc2ccccc2[nH]1)C(=O)NC1CCCCC1C (stereo not given)	26.2%	3.9%	192%
COc1ccc(S(=O)(=O)N2CCCCC2)cc1C(=O)N1CCCC1	9.1%	37%	165%
Cc1ncc(CN2CCCC(C(=O)Nc3ccc(-c4cscn4)cc3)C2)cn1 (stereo not given)	12.4%	30.3%	221%
CC(COc1ccc(C(C)C)cc1)NC(=O)c1ccc(Br)o1 (stereo not given)	28.7%	21.1%	278%
CC1CCN(S(=O)(=O)Cc2ccccc2Cl)CC1	9.2%	16.3%	336%
O=C(Nc1ccc(OC(F)(F)F)cc1)C1=NCCN1	6.9%	26.1%	272%
CCN1CC(CN(C)Cc2nc(-c3ccc(OC)c4ccccc34)oc2C)CC1=O (stereo not given)	12.9%	19.3%	181%
CC(=O)N/C(=C\c1ccccc1)C(=O)NCc1ccc2c(c1)OCO2	5.9%	19.2%	252%
O=C(CN1C(=O)C(=O)N(Cc2ccccc2)C1=O)c1ccc[nH]1	14.5%	15.8%	422%

Some of the entries so far, as a markdown table:

| SMILES | double positive events (at 7.7 µM) | double positive events [1] | percent response (vesicle binding) (at 7.7 µM) |
| --- | --- | --- | --- |
| Cc1ncc(CN2CCCC(C(=O)Nc3ccc(-c4cscn4)cc3)C2)cn1 (stereo not given) | 12.4% | 30.3% | 221% |
| CC1CCN(S(=O)(=O)Cc2ccccc2Cl)CC1 | 9.2% | 16.3% | 336% |

Continuation:

SMILES	double positive events (at 7.7 µM)	double positive events [1]	percent response (vesicle binding) (at 7.7 µM)
O=C1Nc2ccccc2C12OCCS2 (stereo not given)	26.8%	19.4%	817%
Cc1ccc(-c2cc(=O)[nH][nH]2)c(C)c1	11.3%	22.1%	411%
COc1ccc(-c2cc(=O)c3cc(O)ccc3o2)cc1	19.6%	12.9%	266%
COc1ccc(S(=O)(=O)N2CCCCCC2)cc1C(=O)NCc1cccs1	10.3%	20.3%	301%
CN(C)C(=O)NC(O)C(Cl)Cl (stereo not given)	14.8%	16.3%	281%
Cn1c(NCc2ccc(Cl)cc2)nc2ccccc21	13.5%	16.5%	164%
O=C(NCC1CCCO1)c1ccc(CS(=O)(=O)c2ccc(Br)cc2)o1 (stereo not given)	31.9%	9.7%	163%
O=C(CCS(=O)(=O)c1ccccc1)Nc1nc2c(s1)COc1ccccc1-2	23.1%	9.3%	310%
Cc1cc(C)c2c(N)c(C(=O)c3ccc(Cl)cc3)sc2n1	25%	31.2%	195%
COc1ccc(-c2nnn(CC(=O)N(c3cccc(O)c3)C(C)C(=O)NC3CCCC3)n2)cc1OC (stereo not given)	39.5%	28.8%	263%
COCc1c(C(=O)Nc2cccc(S(=O)(=O)N3CCCCC3)c2)oc2ccccc12	14.2%	15.7%	222%
Cc1ccc(C2=NS(=O)(=O)N(C)C(C(=O)Nc3cc(C)n(CC(=O)N4CCC(C)CC4)n3)=C2)cc1	21.7%	20.4%	470%
c1cncc(CSc2ccc(-c3ccc4c(c3)OCO4)nn2)c1	22.1%	37.6%	147%
CCOC(=O)/C=C1\SCC(=O)N1CC(=O)NC(C)c1ccc(F)cc1 (stereo not given)	25%	7.1%	279%
O=C(Nc1cccn(Cc2ccccc2Cl)c1=O)NC1CCCCC1	7.6%	18.1%	309%
CC(C)CNC(=O)COC(=O)c1n[nH]c2ccccc12	12%	12.5%	141%
O=C(NCc1ccccc1C(F)(F)F)C1CCC(=O)N(CCCc2ccccc2)C1 (stereo not given)	16.8%	5.6%	406%
COc1cccc(C(=O)Nc2ccc(NC(=O)C3CC=CCC3C(=O)O)cc2)c1 (stereo not given)	39.7%	10.6%	284%
O=C(Cc1ccc(Cl)cc1)Nc1ccccc1N1CCOCC1	12.5%	24%	162%
Cc1ccc(Cl)cc1OCC(=O)NCCOC(=O)Nc1sc(=S)n(C)c1C	36.7%	12.3%	
O=C1c2ccccc2OCOc2ccccc21	31.9%	17.5%	310%
